# Test results from publication PMC11073699, “Odorant receptors for floral- and plant-derived volatiles in the yellow fever mosquito, Aedes aegypti (Diptera: Culicidae)” (PLOS ONE, 2024).
# Values joined by “and” are separate entries in the source; they are usually repeats but may differ in a detail not shown here. Identical values can stand only once. Further values from the same series stand in other lists.
# Biological target: T1, AaegOR71 (Aedes aegypti, UniProt A0A3S7SHD4)
# T1 sequence (A0A3S7SHD4 1-415): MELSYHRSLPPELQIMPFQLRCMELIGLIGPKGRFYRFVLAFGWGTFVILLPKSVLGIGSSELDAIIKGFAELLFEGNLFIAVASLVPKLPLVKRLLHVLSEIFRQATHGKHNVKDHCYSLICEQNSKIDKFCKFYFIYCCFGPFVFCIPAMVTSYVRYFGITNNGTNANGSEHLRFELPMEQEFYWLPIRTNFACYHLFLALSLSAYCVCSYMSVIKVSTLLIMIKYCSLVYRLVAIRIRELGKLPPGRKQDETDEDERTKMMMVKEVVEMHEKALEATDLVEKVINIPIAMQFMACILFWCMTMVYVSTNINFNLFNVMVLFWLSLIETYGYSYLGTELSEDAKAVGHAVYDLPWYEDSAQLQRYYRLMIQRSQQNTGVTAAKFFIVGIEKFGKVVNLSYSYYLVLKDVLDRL
# T1 sequence (Q178U6 1-478 partner): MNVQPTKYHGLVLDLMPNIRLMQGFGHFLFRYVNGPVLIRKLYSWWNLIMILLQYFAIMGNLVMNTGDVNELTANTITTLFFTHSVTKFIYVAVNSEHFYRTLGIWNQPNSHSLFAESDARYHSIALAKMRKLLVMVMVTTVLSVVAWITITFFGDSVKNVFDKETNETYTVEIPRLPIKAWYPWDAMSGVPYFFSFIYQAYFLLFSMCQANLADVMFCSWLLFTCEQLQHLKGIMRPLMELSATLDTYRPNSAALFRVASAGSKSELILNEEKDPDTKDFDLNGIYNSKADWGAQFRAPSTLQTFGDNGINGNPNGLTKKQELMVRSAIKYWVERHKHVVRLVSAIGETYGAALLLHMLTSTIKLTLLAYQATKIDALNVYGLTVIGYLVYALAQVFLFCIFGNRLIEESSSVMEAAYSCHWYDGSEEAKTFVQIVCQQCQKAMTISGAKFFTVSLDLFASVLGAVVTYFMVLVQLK
# Assay: Two-electrode voltage clamp of Xenopus laevis oocytes expressing AaegOR71/Orco (blends, unitary compounds, concentration-response)
# Type: cell-based
# Settings: second series (unlabelled), Oocytes 1-8 individually
# From the text: The coding regions of ten AaegOR genes of interest (S3 File) and AaegOrco were synthesized by Twist Bioscience (San Francisco, CA, USA) and cloned into the pENTR plasmid. The Gateway LR directional cloning system (Invitrogen Corp., Carlsbad, CA, USA) was utilized to subclone AaegOR coding regions into the pSP64t-RFA oocyte expression plasmid. Plasmids were purified using the GeneJet Plasmid Miniprep Kit (ThermoFisher Scientific, Waltham, MA, USA). Purified plasmids were sequenced in both directions to confirm coding regions.
# Chemical compounds (S6 File) used in the deorphanization of AaegORs were purchased from Acros Organics (Morris, NJ, USA), Alfa Aesar (Ward Hill, MA, USA), and ThermoFisher Scientific (Waltham, MA, USA) at the highest purity available. Compounds were stored as 1M stocks in 100% DMSO. Serial dilutions of each compound were prepared in 10% DMSO and blended by chemical class.
# pSP64t-RFA: AaegOR clones were linearized using Xbal, and cRNAs were synthesized using the mMESSAGE mMACHINE ® SP6 kit (Life Technologies, Carlsbad, CA, USA). […] Induced currents were measured indirectly using the two-electrode voltage clamp technique (TEVC). […] Data were analyzed using GraphPad Prism 8 (GraphPad Software Inc., La Jolla, CA, USA). […] Data for at least seven oocytes responding to each compound was analyzed (S7 File).
smiles,measurement,setting,value
"O=Cc1ccnc2ccccc12 [4-quinolinecarboxaldehyde, 4-Quinolinecarboxaldehyde]",Raw Data (Response in nA),1e-6 M,100 nA and 370 nA and 110 nA and 50 nA
same,Raw Data (Response in nA),5e-6 M,200 nA and 360 nA and 380 nA and 180 nA and 150 nA (2×) and 480 nA and 100 nA
